# The list shows a part of the results.
# Experiments:
# Experiment in all cases: glycan array binding signal (z-score within array); higher = stronger binding
# Details in all cases: glycan notation: IUPAC condensed, linker removed
# [1] = biological target: Fuc(a1-3)[Gal3S(b1-4)]GlcNAc
# Summary of the method: (§1)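 Columns mapping to the same glycan were averaged after glycan names were converted to IUPAC-condensed notation. The data come from 3228 arrays in the Consortium for Functional Glycomics database, limited to those with an available protein sequence. Binding is reported as a within-array Z-score averaged across arrays of one protein sequence and across linkers.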
# [2] = biological target: Fuc(a1-3)[Gal3S(b1-4)]GlcNAc6S
# Summary of the method: as §1
# [3] = biological target: Fuc(a1-3)[GalNAc(b1-4)]GlcNAc
# Summary of the method: as §1
# Fuc(a1-4)GlcNAc = biological target: Fuc(a1-4)GlcNAc
# Summary of the method: as §1
# Fuc(b1-3)GlcNAc = biological target: Fuc(b1-3)GlcNAc
# Summary of the method: as §1
# Gal(a1-2)Gal = biological target: Gal(a1-2)Gal
# Summary of the method: as §1
# Gal(a1-3)Gal = biological target: Gal(a1-3)Gal
# Summary of the method: as §1
# Gal(a1-3)Gal(b1-3)GlcNAc = biological target: Gal(a1-3)Gal(b1-3)GlcNAc
# Summary of the method: as §1
# [4] = biological target: Gal(a1-3)Gal(b1-3)GlcNAc(b1-2)Man(a1-3)[Gal(a1-3)Gal(b1-3)GlcNAc(b1-2)Man(a1-6)]Man(b1-4)GlcNAc(b1-4)GlcNAc
# Summary of the method: as §1
# [5] = biological target: Gal(a1-3)Gal(b1-3)[Fuc(a1-4)]GlcNAc(b1-2)Man(a1-3)[Gal(a1-3)Gal(b1-3)[Fuc(a1-4)]GlcNAc(b1-2)Man(a1-6)]Man(b1-4)GlcNAc(b1-4)GlcNAc
# Summary of the method: as §1
# Gal(a1-3)Gal(b1-4)Glc = biological target: Gal(a1-3)Gal(b1-4)Glc
# Summary of the method: as §1
# Gal(a1-3)Gal(b1-4)GlcNAc = biological target: Gal(a1-3)Gal(b1-4)GlcNAc
# Summary of the method: as §1
# [6] = biological target: Gal(a1-3)Gal(b1-4)GlcNAc(b1-3)GalNAc
# Summary of the method: as §1
# [7] = biological target: Gal(a1-3)Gal(b1-4)[Fuc(a1-3)]GlcNAc
# Summary of the method: as §1
# [8] = biological target: Gal(a1-3)Gal(b1-4)[Fuc(a1-3)]GlcNAc(b1-2)Man(a1-3)[Gal(a1-3)Gal(b1-4)[Fuc(a1-3)]GlcNAc(b1-2)Man(a1-6)]Man(b1-4)GlcNAc(b1-4)GlcNAc
# Summary of the method: as §1
# Gal(a1-3)GalNAc = biological target: Gal(a1-3)GalNAc
# Summary of the method: as §1
# [9] = biological target: Gal(a1-3)[Gal(a1-4)]Gal(b1-4)GlcNAc
# Summary of the method: as §1
# [10] = biological target: Gal(a1-4)Gal(b1-3)GlcNAc(b1-2)Man(a1-3)[Gal(a1-4)Gal(b1-3)GlcNAc(b1-2)Man(a1-6)]Man(b1-4)GlcNAc(b1-4)GlcNAc
# Summary of the method: as §1
# Gal(a1-4)Gal(b1-4)Glc = biological target: Gal(a1-4)Gal(b1-4)Glc
# Summary of the method: as §1
# Gal(a1-4)Gal(b1-4)GlcNAc = biological target: Gal(a1-4)Gal(b1-4)GlcNAc
# Summary of the method: as §1
# [11] = biological target: Gal(a1-4)Gal(b1-4)GlcNAc(b1-2)Man(a1-3)[Gal(a1-4)Gal(b1-4)GlcNAc(b1-2)Man(a1-6)]Man(b1-4)GlcNAc(b1-4)GlcNAc
# Summary of the method: as §1
# [12] = biological target: Gal(a1-4)Gal(b1-4)GlcNAc(b1-3)Gal(b1-4)Glc
# Summary of the method: as §1
# Gal(a1-4)GlcNAc = biological target: Gal(a1-4)GlcNAc
# Summary of the method: as §1
# Gal(a1-6)Glc = biological target: Gal(a1-6)Glc
# Summary of the method: as §1
# Gal(b1-2)Gal = biological target: Gal(b1-2)Gal
# Summary of the method: as §1
# Gal(b1-3)Gal = biological target: Gal(b1-3)Gal
# Summary of the method: as §1
# Gal(b1-3)Gal(b1-4)GlcNAc = biological target: Gal(b1-3)Gal(b1-4)GlcNAc
# Summary of the method: as §1
# [13] = biological target: Gal(b1-3)Gal(b1-4)GlcNAc(b1-2)Man(a1-3)[Gal(b1-3)Gal(b1-4)GlcNAc(b1-2)Man(a1-6)]Man(b1-4)GlcNAc(b1-4)GlcNAc
# Summary of the method: as §1
# Gal(b1-3)GalNAc = biological target: Gal(b1-3)GalNAc
# Summary of the method: as §1
# [14] = biological target: Gal(b1-3)GalNAc(a1-3)[Fuc(a1-2)]Gal(b1-4)Glc
# Summary of the method: as §1
# [15] = biological target: Gal(b1-3)GalNAc(a1-3)[Fuc(a1-2)]Gal(b1-4)GlcNAc
# Summary of the method: as §1
# [16] = biological target: Gal(b1-3)GalNAc(b1-3)Gal(a1-4)Gal(b1-4)Glc
# Summary of the method: as §1
# [17] = biological target: Gal(b1-3)GalNAc(b1-4)Gal(b1-4)Glc
# Summary of the method: as §1
# [18] = biological target: Gal(b1-3)GalNAc(b1-4)[Neu5Ac(a2-3)]Gal(b1-4)Glc
# Summary of the method: as §1
# Gal(b1-3)GlcNAc = biological target: Gal(b1-3)GlcNAc
# Summary of the method: as §1
# [19] = biological target: Gal(b1-3)GlcNAc(a1-6)Gal(b1-4)GlcNAc
# Summary of the method: as §1
# [20] = biological target: Gal(b1-3)GlcNAc(b1-2)Man(a1-3)[Gal(b1-3)GlcNAc(b1-2)Man(a1-6)]Man(b1-4)GlcNAc(b1-4)GlcNAc
# Summary of the method: as §1
# [21] = biological target: Gal(b1-3)GlcNAc(b1-2)Man(a1-3)[Gal(b1-3)GlcNAc(b1-2)Man(a1-6)]Man(b1-4)GlcNAc(b1-4)[Fuc(a1-6)]GlcNAc
# Summary of the method: as §1
# [22] = biological target: Gal(b1-3)GlcNAc(b1-3)Gal(b1-3)GlcNAc
# Summary of the method: as §1
# [23] = biological target: Gal(b1-3)GlcNAc(b1-3)Gal(b1-4)Glc
# Summary of the method: as §1
# [24] = biological target: Gal(b1-3)GlcNAc(b1-3)Gal(b1-4)GlcNAc
# Summary of the method: as §1
# [25] = biological target: Gal(b1-3)GlcNAc(b1-3)Gal(b1-4)GlcNAc(b1-6)[Gal(b1-3)GlcNAc(b1-3)]Gal(b1-4)Glc
# Summary of the method: as §1
# [26] = biological target: Gal(b1-3)GlcNAc(b1-3)Gal(b1-4)[Fuc(a1-3)]GlcNAc(b1-6)[Gal(b1-3)GlcNAc(b1-3)]Gal(b1-4)Glc
# Summary of the method: as §1
# [27] = biological target: Gal(b1-3)GlcNAc(b1-3)GalNAc
# Summary of the method: as §1
# [28] = biological target: Gal(b1-3)GlcNAc(b1-6)Gal(b1-4)GlcNAc
# Summary of the method: as §1
binder,measurement,setting,value
"SspB (Streptococcus gordonii), P16952 (protein) MKNKKEVYGFRKSKVAKTLCGAVLGTALIAFADKAVFADEVTETTSTSTVEVATTGNPATNLPEAQGEMSQVAKESQAKAGSKESALPVEVSSADLDKAVADAKSAGVKVVQDETKDKGTATTATDNAQKQDEIKSDYAKQAEEIKTTTEAYKKEVAAHQAETDKINAENKAADDKYQKDLKSHQEEVEKINTANATAKAEYEAKLAQYQKDLATVKKANEDSQQDYQNKLSAYQTELARVQKANAEAKEAYEKAVKENTAKNEALKVENEAIKQRNETAKATYEAAMKQYEADLAAIKKANEDNDADYQAKLAAYQTELARVQKANAEAKEAYDKAVKENTAKNTAIQAENEAIKQRNETAKATYDAAVKKYEADLAAVKQANATNEADYQAKLAAYQTELARVQKANADAKATYEKAVEDNKAKNAAIKAENEEIKQRNAVAKTDYEAKLAKYEADLAKYKKEFAAYTAALAEAESKKKQDGYLSEPRSQSLNFKSEPNAIRTIDSSVHQYGQQELDALVKSWGISPTNPDRKKSRAYSYFNAINSNNTYAKLVLEKDKPVDVTYTGLKNSSFNGKKISKVVYTYTLKETGFNDGTKMTMFASSDPTVTAWYNDYFTSTNINVKVKFYDEEGQLMNLTGGLVNFSSLNRGNGSGAIDKDAIESVRNFNGRYIPISGSSIKIHENNSAYADSSNAEKSLGARWNTSEWDTTSSPNNWYGAIVGEITQSEISFNMASSKSGNIWFAFNSNINAIGVPTKPVAPTAPTQPMYETEKPLEPAPVAPSYENEPTPPVKTPDQPEPSKPEEPTYETEKPLEPAPVAPSYENEPTPPVKTPDQPEPSKPEEPNYETEKPLEPAPVAPSYENEPTPPVKIPDQPEPSKPEEPTYDPLPTPPLAPTPKQLPTPPVVPTVHFHYSSLLAQPQINKEIKNEDGVDIDRTLVAKQSIVKFELKTEALTAGRPKTTSFVLVDPLPTGYKFDLDATKAASTGFDTTYDEASHTVTFKATDETLATYNADLTKPVETLHPTVVGRVLNDGATYTNNFTLTVNDAYGIKSNVVRVTTPGKPNDPDNPNNNYIKPTKVNKNKEGLNIDGKEVLAGSTNYYELTWDLDQYKGDKSSKEAIQNGFYYVDDYPEEALDVRPDLVKVADEKGNQVSGVSVQQYDSLEAAPKKVQDLLKKANITVKGAFQLFSADNPEEFYKQYVATGTSLVITDPMTVKSEFGKTGGKYENKAYQIDFGNGYATEVVVNNVPKITPKKDVTVSLDPTSENLDGQTVQLYQTFNYRLIGGLIPQNHSEELEDYSFVDDYDQAGDQYTGNYKTFSSLNLTMKDGSVIKAGTDLTSQTTAETDATNGIVTVRFKEDFLQKISLDSPFQAETYLQMRRIAIGTFENTYVNTVNKVAYASNTVRTTTPIPRTPDKPTPIPTPKPKDPDKPETPKEPKVPSPKVEDPSAPIPVSVGKELTTLPKTGTNDATYMPYLGLAALVGFLGLGLAKRKED",glycan array binding signal (z-score),[1],-0.676
same,glycan array binding signal (z-score),[2],0.242
same,glycan array binding signal (z-score),[3],-0.177
same,glycan array binding signal (z-score),Fuc(a1-4)GlcNAc,0.463
same,glycan array binding signal (z-score),Fuc(b1-3)GlcNAc,1.4
same,glycan array binding signal (z-score),Gal(a1-2)Gal,-0.319
same,glycan array binding signal (z-score),Gal(a1-3)Gal,-0.258
same,glycan array binding signal (z-score),Gal(a1-3)Gal(b1-3)GlcNAc,-0.597
same,glycan array binding signal (z-score),[4],1.79
same,glycan array binding signal (z-score),[5],1.81
same,glycan array binding signal (z-score),Gal(a1-3)Gal(b1-4)Glc,0.319
same,glycan array binding signal (z-score),Gal(a1-3)Gal(b1-4)GlcNAc,0.308
same,glycan array binding signal (z-score),[6],2.02
same,glycan array binding signal (z-score),[7],0.663
same,glycan array binding signal (z-score),[8],0.284
same,glycan array binding signal (z-score),Gal(a1-3)GalNAc,0.141
same,glycan array binding signal (z-score),[9],-1.23
same,glycan array binding signal (z-score),[10],0.508
same,glycan array binding signal (z-score),Gal(a1-4)Gal(b1-4)Glc,-1.22
same,glycan array binding signal (z-score),Gal(a1-4)Gal(b1-4)GlcNAc,-0.016
same,glycan array binding signal (z-score),[11],0.457
same,glycan array binding signal (z-score),[12],0.386
same,glycan array binding signal (z-score),Gal(a1-4)GlcNAc,-0.871
same,glycan array binding signal (z-score),Gal(a1-6)Glc,0.072
same,glycan array binding signal (z-score),Gal(b1-2)Gal,-0.166
same,glycan array binding signal (z-score),Gal(b1-3)Gal,0.527
same,glycan array binding signal (z-score),Gal(b1-3)Gal(b1-4)GlcNAc,0.644
same,glycan array binding signal (z-score),[13],-0.672
same,glycan array binding signal (z-score),Gal(b1-3)GalNAc,0.725
same,glycan array binding signal (z-score),[14],0.565
same,glycan array binding signal (z-score),[15],0.035
same,glycan array binding signal (z-score),[16],1.1
same,glycan array binding signal (z-score),[17],1.1
same,glycan array binding signal (z-score),[18],-1.62
same,glycan array binding signal (z-score),Gal(b1-3)GlcNAc,-0.006
same,glycan array binding signal (z-score),[19],1.91
same,glycan array binding signal (z-score),[20],0.616
same,glycan array binding signal (z-score),[21],2.19
same,glycan array binding signal (z-score),[22],-0.283
same,glycan array binding signal (z-score),[23],-0.986
same,glycan array binding signal (z-score),[24],-1.18
same,glycan array binding signal (z-score),[25],1.98
same,glycan array binding signal (z-score),[26],1.07
same,glycan array binding signal (z-score),[27],1.02
same,glycan array binding signal (z-score),[28],0.13
